Here are results for three molecules from doi:10.1101/2023.06.19.545549.

By UniProt entry, the sequences of proteins in these tests, tags left out.
UniProt P95334: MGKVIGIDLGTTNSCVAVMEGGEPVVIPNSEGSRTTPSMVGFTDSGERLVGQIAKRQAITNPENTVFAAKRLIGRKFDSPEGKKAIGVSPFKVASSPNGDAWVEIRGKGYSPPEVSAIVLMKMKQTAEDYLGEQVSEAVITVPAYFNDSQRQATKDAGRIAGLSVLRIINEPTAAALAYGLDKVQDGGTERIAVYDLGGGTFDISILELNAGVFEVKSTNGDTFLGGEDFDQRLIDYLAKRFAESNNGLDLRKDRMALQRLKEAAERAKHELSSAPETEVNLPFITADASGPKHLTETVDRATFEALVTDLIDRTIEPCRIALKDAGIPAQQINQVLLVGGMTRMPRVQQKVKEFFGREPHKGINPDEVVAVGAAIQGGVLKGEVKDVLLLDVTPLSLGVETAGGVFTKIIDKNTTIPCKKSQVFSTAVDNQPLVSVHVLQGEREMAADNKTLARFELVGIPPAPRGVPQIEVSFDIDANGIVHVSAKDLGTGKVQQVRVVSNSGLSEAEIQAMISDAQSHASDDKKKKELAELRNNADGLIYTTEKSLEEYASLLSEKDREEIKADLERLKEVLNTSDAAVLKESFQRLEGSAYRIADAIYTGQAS

These are yes or no findings as the source states them, for the method shown. For part of these data: Binding seen in cells or lysates may run through a third protein. Some binding calls cover weakened binding; strength is not graded here.

The target of assay [1] is His6-MxDnaK2, purified recombinant (Myxococcus xanthus DK1622) (UniProt P95334). Kind of assay: SDS-PAGE of the purified protein.
Assay [2] addresses MxDnaK2-nLuc (MxDnaK2-LgBiT and MxDnaK2-SmBiT) (Myxococcus xanthus DK1622) (UniProt P95334). Kind of assay: split reporter.
Assay [3] has as its target His6-MxDnaK2, purified recombinant (Myxococcus xanthus DK1622) (UniProt P95334). Kind of assay: SDS-PAGE bands of the Ni-NTA purified protein, identified.

Regarding “His6-MxDnaK2, purified recombinant (from UniProt P95334 1-607)”, the binding result in assay [1] was “no binding (condition: with 100 mM DTT)”.

Turning to “MxDnaK2-nLuc (MxDnaK2-LgBiT and MxDnaK2-SmBiT) (from UniProt P95334 1-607)”, the binding entry in assay [2] is given as “binds”.

B1: anti-FlhDC factor (WP_001300634.1, 27 kDa) (protein, UniProt P76204 1-237)
chain: MKIFLENLYHSDCYFLPIRDNQQVLVGVELITHFSSEDGTVRIPTSRVIAQLTEEQHWQLFSEQLELLKSCQHFFIQHKLFAWLNLTPQVATLLLERDNYAGELLKYPFIELLINENYPHLNEGKDNRGLLSLSQVYPLVLGNLGAGNSTMKAVFDGLFTRVMLDKSFIQQQITHRSFEPFIRAIQAQISPCCNCIIAGGIDTAEILAQITPFDFHALQGCLWPAVPINQITTLVQR
For B1, the binding entry in assay [3] is on record as “binds”.
